This passage reports binding results from PMC13172546.

Amino acid sequences for entries named in this document (tags omitted).
UniProt P46937: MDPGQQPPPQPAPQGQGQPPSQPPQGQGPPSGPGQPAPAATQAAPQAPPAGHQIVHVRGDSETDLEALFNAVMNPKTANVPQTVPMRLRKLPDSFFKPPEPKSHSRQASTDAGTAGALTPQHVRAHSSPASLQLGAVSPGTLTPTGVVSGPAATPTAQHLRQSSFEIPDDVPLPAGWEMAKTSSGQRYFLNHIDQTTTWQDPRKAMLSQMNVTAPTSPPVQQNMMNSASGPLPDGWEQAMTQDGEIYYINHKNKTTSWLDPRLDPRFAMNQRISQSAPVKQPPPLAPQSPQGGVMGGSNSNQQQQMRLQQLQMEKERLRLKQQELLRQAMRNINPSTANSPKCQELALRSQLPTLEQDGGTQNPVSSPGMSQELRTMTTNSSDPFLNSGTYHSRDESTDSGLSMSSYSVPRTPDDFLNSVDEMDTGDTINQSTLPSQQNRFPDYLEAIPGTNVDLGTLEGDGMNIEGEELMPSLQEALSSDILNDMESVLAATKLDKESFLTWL
UniProt Q2KHR3: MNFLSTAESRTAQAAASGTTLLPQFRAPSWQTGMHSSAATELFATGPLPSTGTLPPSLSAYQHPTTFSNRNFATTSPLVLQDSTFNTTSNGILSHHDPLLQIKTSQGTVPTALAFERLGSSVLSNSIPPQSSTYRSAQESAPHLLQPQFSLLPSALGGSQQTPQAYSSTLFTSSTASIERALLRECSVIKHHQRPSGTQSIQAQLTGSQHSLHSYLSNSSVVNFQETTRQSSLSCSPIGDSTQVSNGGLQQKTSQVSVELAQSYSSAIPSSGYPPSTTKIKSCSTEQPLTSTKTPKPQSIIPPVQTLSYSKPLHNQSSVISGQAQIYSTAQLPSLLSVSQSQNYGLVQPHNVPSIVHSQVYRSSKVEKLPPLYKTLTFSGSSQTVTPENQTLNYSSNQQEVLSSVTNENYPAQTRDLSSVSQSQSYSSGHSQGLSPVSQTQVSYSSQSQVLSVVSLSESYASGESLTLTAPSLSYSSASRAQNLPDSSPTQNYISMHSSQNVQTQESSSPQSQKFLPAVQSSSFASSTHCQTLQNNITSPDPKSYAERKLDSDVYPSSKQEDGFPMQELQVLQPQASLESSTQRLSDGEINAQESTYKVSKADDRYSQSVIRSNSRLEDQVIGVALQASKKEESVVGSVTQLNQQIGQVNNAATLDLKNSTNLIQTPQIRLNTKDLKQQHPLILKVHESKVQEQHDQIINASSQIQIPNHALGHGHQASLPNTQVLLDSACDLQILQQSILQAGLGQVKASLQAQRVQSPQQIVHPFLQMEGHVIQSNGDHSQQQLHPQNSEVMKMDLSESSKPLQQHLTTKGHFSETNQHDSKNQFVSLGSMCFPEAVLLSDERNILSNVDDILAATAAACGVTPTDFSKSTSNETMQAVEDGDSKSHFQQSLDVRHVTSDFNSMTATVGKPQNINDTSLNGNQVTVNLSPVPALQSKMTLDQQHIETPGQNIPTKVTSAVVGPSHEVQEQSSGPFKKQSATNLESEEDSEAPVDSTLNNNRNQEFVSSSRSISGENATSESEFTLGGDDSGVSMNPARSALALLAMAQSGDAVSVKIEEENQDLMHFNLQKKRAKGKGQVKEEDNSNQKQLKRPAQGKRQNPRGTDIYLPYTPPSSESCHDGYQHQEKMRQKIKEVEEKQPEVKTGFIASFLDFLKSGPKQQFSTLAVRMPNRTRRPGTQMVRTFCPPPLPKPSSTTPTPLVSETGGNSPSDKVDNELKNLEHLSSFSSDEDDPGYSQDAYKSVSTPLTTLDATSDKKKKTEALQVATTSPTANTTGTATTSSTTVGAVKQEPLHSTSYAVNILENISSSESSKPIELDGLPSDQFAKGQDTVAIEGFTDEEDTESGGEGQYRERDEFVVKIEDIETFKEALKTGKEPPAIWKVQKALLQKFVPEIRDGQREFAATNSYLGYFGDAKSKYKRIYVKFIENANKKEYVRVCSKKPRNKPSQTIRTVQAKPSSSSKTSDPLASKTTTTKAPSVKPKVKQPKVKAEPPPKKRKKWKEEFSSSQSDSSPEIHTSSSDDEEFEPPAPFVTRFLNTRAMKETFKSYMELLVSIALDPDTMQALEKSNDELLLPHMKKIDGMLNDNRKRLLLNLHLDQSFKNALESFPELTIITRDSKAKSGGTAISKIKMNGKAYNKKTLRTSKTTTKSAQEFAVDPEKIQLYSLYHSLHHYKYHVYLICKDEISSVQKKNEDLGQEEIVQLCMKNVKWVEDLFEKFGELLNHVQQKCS

Assay [1] addresses YAP1 (endogenous) (human (endogenous in H1 hESCs)) (UniProt P46937). Kind of assay: SEC; nuclear extracts of WT H1 hESCs on a Superose 6 Increase 10/300 GL column in 1x PBS; fractions analysed by western blot for QSER1 and YAP1. On the technique in general: In gel filtration, larger molecules generally elute earlier.
Assay [2] concerns the target YAP1-MYC-BIR2 fusion protein (human) (UniProt P46937). Briefly: co-IP; YAP1 antibody immunoprecipitation in the doxycycline-inducible YAP1-Myc-Bir2 hESC line with and without doxycycline; IPH buffer (50 mM Tris/HCl, 150 mM NaCl, 5 mM EDTA, 0.5% Igepal); western blot with QSER1, TEAD4 and YAP1 antibodies.

Results are given in words; binding and its absence hold for the method and conditions named. For some assays here: Binding seen in cells or lysates may run through a third protein. Some binding calls cover weakened binding; strength is not graded here.

Consider QSER1 (from UniProt Q2KHR3 1-1735), for which the binding entry in assay [1] and in assay [2] was “binds” in each case.
